This note sets out measurements from article PMC4895808.

Sequences of proteins named here, by UniProt entry; tags and fusion partners are left off.
UniProt P55200: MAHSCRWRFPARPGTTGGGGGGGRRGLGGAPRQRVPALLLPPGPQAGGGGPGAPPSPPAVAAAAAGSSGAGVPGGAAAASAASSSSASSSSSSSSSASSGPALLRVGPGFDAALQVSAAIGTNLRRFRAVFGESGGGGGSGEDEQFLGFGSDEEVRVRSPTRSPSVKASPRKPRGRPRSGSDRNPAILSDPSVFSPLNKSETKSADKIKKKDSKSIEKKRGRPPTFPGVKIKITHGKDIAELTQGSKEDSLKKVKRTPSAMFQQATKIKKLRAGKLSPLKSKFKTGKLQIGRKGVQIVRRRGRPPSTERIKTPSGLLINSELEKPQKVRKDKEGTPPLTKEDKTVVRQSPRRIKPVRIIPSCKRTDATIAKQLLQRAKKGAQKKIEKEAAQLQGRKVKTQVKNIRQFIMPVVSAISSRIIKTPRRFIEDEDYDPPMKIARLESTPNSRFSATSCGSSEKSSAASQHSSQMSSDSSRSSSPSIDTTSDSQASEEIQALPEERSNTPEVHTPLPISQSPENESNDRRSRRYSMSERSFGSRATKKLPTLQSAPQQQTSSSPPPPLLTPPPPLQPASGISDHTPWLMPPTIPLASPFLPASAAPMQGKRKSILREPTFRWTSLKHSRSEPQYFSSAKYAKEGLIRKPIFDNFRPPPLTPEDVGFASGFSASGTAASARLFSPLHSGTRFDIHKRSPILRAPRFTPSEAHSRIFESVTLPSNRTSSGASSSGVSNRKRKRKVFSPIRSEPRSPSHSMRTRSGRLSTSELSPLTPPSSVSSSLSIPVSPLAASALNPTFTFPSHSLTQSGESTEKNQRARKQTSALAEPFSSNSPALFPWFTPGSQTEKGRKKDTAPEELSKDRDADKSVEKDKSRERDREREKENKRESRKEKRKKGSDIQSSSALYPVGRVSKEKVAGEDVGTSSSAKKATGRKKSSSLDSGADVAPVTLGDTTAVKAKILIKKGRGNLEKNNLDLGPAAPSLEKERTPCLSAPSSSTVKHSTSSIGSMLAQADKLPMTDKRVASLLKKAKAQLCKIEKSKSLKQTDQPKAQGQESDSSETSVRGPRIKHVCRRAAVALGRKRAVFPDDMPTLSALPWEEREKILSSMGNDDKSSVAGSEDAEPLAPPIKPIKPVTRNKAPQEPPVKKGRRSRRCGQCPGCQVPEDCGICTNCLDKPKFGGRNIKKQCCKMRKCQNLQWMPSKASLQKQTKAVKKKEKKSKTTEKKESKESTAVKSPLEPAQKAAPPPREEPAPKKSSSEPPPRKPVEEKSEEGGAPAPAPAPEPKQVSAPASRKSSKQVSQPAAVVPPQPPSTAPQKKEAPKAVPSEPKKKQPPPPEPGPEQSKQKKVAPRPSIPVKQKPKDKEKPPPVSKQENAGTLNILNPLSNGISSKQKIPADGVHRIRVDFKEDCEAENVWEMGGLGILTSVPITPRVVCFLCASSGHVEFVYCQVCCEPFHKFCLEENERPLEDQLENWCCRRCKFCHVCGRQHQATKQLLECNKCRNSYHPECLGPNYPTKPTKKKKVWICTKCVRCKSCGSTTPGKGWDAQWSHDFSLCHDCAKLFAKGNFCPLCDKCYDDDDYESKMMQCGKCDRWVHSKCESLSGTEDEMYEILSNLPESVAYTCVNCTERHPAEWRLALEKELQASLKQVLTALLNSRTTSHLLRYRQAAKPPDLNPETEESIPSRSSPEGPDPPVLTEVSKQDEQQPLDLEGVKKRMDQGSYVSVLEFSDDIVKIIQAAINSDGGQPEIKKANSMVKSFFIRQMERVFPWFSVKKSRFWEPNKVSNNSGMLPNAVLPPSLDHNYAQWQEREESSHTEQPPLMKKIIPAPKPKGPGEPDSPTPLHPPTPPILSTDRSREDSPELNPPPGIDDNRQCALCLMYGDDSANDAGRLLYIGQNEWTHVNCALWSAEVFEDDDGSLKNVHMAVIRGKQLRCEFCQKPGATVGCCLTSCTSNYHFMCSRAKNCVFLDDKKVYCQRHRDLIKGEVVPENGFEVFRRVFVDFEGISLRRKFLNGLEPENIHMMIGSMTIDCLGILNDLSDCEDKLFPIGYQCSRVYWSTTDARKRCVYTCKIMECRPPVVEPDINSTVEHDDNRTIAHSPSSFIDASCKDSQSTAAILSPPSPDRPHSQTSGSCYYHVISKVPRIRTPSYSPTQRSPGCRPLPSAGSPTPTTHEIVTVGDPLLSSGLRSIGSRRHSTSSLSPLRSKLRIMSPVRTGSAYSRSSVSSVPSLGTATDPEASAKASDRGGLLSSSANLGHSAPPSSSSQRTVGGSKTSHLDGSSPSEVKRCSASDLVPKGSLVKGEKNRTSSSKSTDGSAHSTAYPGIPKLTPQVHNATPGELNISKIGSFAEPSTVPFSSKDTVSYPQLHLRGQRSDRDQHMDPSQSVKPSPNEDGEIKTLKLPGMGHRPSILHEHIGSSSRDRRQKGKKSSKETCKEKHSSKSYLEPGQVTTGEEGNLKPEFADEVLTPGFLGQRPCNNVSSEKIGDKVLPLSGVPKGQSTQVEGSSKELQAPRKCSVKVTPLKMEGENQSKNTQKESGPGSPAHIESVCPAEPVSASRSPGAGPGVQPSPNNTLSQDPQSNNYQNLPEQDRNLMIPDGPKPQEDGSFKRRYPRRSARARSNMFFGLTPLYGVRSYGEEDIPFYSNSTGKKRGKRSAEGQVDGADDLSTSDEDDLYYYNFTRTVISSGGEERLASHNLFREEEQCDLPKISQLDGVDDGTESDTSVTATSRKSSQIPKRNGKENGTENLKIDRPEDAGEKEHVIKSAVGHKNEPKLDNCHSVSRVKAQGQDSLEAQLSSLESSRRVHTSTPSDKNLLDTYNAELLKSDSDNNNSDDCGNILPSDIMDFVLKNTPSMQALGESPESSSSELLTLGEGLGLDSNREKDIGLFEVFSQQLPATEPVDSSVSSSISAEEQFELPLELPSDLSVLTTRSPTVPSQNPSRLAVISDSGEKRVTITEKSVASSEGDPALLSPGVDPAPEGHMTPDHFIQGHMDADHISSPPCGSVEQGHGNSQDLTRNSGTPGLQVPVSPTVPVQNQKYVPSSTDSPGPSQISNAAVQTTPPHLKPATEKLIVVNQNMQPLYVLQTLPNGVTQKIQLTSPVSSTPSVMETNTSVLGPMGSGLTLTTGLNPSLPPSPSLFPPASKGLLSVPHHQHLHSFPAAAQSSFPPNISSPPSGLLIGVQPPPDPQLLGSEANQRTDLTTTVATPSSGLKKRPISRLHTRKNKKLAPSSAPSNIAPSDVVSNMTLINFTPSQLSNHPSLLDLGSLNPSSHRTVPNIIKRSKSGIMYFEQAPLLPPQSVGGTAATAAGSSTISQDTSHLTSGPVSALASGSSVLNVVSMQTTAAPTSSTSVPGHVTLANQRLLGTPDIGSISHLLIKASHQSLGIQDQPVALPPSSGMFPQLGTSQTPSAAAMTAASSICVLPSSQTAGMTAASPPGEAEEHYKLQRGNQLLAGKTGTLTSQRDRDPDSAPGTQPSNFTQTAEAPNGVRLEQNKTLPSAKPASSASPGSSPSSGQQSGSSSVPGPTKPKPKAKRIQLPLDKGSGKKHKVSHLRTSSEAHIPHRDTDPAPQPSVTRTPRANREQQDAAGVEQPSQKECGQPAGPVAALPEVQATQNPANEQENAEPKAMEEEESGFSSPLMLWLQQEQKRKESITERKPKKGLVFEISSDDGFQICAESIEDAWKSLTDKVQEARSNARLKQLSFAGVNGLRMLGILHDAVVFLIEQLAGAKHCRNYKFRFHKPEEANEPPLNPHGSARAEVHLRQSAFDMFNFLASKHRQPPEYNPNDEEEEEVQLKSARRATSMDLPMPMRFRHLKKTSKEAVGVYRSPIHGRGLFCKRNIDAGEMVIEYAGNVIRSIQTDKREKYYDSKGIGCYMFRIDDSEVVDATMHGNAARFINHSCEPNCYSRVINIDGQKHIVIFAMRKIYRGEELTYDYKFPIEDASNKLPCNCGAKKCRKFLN

The target in this assay is T1, Tbx1 (mouse (endogenous in P19Cl6)) (UniProt P70323).
T1 sequence: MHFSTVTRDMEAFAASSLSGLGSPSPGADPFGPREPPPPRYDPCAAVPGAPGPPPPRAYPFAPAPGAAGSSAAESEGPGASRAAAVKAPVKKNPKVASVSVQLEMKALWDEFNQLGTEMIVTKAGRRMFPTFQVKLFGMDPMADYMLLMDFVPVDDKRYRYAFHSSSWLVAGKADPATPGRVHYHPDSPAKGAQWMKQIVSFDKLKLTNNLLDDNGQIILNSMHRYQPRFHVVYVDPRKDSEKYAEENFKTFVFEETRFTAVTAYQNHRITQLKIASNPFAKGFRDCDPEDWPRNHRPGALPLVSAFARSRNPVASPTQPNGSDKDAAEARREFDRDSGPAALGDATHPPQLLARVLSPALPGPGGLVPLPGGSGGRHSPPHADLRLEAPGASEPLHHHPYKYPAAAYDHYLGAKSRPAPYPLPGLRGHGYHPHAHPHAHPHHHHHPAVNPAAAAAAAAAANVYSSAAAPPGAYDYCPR
The assay can be described thus: ChIP-western blot; formaldehyde cross-linked, sonicated chromatin of differentiating P19Cl6 cells precipitated with anti-Tbx1 antibody or rabbit IgG (control); immunoprecipitates analysed by western blot; endogenous proteins. In general terms: Immunoblotting shows a protein as a band on a membrane.

Results are given in words; binding and its absence hold for the method and conditions named. Some binding calls cover weakened binding; strength is not graded here.

As for “Kmt2a (from UniProt P55200 1-3966) (enzyme)”, the binding entry is “binds”.

On to “Kmt2b (from UniProt O08550 1-2713) (enzyme)”, for which the binding result is “binds”.
